# This is one part of the list.
# Assays:
# Assay in all cases: glycan array binding signal (z-score within array); higher = stronger binding
# Details in all cases: glycan notation: IUPAC condensed, linker removed
# [1] = target: Fuc(a1-2)Gal
# Summary of the method: (§1)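 Glycan array binding is given as a within-array Z-score, which can be read as non-binding when negative. The arrays, 3228 of them, came from the Consortium for Functional Glycomics database and were retained only where the protein sequence was available. Z-scores were averaged across arrays of the same protein sequence at different concentrations or buffers and across linkers.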
# [2] = target: Fuc(a1-2)Gal(b1-3)GalNAc
# Summary of the method: as §1
# [3] = target: Fuc(a1-2)Gal(b1-3)GalNAc(a1-3)[Fuc(a1-2)]Gal(b1-4)Glc
# Summary of the method: as §1
# [4] = target: Fuc(a1-2)Gal(b1-3)GalNAc(a1-3)[Fuc(a1-2)]Gal(b1-4)GlcNAc
# Summary of the method: as §1
# [5] = target: Fuc(a1-2)Gal(b1-3)GalNAc(b1-3)Gal
# Summary of the method: as §1
# [6] = target: Fuc(a1-2)Gal(b1-3)GalNAc(b1-3)Gal(a1-4)Gal(b1-4)Glc
# Summary of the method: as §1
# [7] = target: Fuc(a1-2)Gal(b1-3)GalNAc(b1-4)[Neu5Ac(a2-3)]Gal(b1-4)Glc
# Summary of the method: as §1
# [8] = target: Fuc(a1-2)Gal(b1-3)GlcNAc
# Summary of the method: as §1
# [9] = target: Fuc(a1-2)Gal(b1-3)GlcNAc(b1-2)Man(a1-3)[Fuc(a1-2)Gal(b1-3)GlcNAc(b1-2)Man(a1-6)]Man(b1-4)GlcNAc(b1-4)GlcNAc
# Summary of the method: as §1
# [10] = target: Fuc(a1-2)Gal(b1-3)GlcNAc(b1-2)Man(a1-3)[Fuc(a1-2)Gal(b1-3)GlcNAc(b1-2)Man(a1-6)]Man(b1-4)GlcNAc(b1-4)[Fuc(a1-6)]GlcNAc
# Summary of the method: as §1
# [11] = target: Fuc(a1-2)Gal(b1-3)GlcNAc(b1-3)Gal(b1-4)Glc
# Summary of the method: as §1
# [12] = target: Fuc(a1-2)Gal(b1-3)GlcNAc(b1-3)GalNAc
# Summary of the method: as §1
# [13] = target: Fuc(a1-2)Gal(b1-3)GlcNAc(b1-3)[Fuc(a1-2)Gal(b1-3)GlcNAc(b1-6)]GalNAc
# Summary of the method: as §1
# [14] = target: Fuc(a1-2)Gal(b1-3)GlcNAc(b1-3)[Gal(b1-4)GlcNAc(b1-6)]Gal(b1-4)Glc
# Summary of the method: as §1
# [15] = target: Fuc(a1-2)Gal(b1-3)GlcNAc(b1-3)[Neu5Ac(a2-6)Gal(b1-4)GlcNAc(b1-6)]Gal(b1-4)Glc
# Summary of the method: as §1
# [16] = target: Fuc(a1-2)Gal(b1-3)GlcNAc6S
# Summary of the method: as §1
# [17] = target: Fuc(a1-2)Gal(b1-3)[Fuc(a1-4)]GlcNAc
# Summary of the method: as §1
# [18] = target: Fuc(a1-2)Gal(b1-3)[Fuc(a1-4)]GlcNAc(b1-2)Man(a1-3)[Fuc(a1-2)Gal(b1-3)[Fuc(a1-4)]GlcNAc(b1-2)Man(a1-3)]Man(b1-4)GlcNAc(b1-4)GlcNAc
# Summary of the method: as §1
# [19] = target: Fuc(a1-2)Gal(b1-3)[Fuc(a1-4)]GlcNAc(b1-2)Man(a1-3)[Fuc(a1-2)Gal(b1-3)[Fuc(a1-4)]GlcNAc(b1-2)Man(a1-6)]Man(b1-4)GlcNAc(b1-4)[Fuc(a1-6)]GlcNAc(b1-4)[Fuc(a1-6)]GlcNAc
# Summary of the method: as §1
# [20] = target: Fuc(a1-2)Gal(b1-3)[Fuc(a1-4)]GlcNAc(b1-3)[Fuc(a1-3)[Gal(b1-4)]GlcNAc(b1-6)]Gal(b1-4)Glc
# Summary of the method: as §1
# [21] = target: Fuc(a1-2)Gal(b1-3)[Fuc(a1-4)]GlcNAc(b1-3)[Gal(b1-4)GlcNAc(b1-6)]Gal(b1-4)Glc
# Summary of the method: as §1
# [22] = target: Fuc(a1-2)Gal(b1-4)Fuc(a1-3)]GlcNAc(b1-2)Man(a1-3)[Fuc(a1-2)Gal(b1-4)[Fuc(a1-3)]GlcNAc(b1-2)Man(a1-6)]Man(b1-4)GlcNAc(b1-4)GlcNAc
# Summary of the method: as §1
# [23] = target: Fuc(a1-2)Gal(b1-4)Glc
# Summary of the method: as §1
# [24] = target: Fuc(a1-2)Gal(b1-4)Glc6S
# Summary of the method: as §1
# [25] = target: Fuc(a1-2)Gal(b1-4)GlcNAc
# Summary of the method: as §1
# [26] = target: Fuc(a1-2)Gal(b1-4)GlcNAc(b1-2)Man
# Summary of the method: as §1
# [27] = target: Fuc(a1-2)Gal(b1-4)GlcNAc(b1-2)Man(a1-3)[Fuc(a1-2)Gal(b1-4)GlcNAc(b1-2)Man(a1-6)]Man(b1-4)GlcNAc(b1-4)GlcNAc
# Summary of the method: as §1
# [28] = target: Fuc(a1-2)Gal(b1-4)GlcNAc(b1-2)Man(a1-3)[Fuc(a1-2)Gal(b1-4)GlcNAc(b1-2)Man(a1-6)]Man(b1-4)GlcNAc(b1-4)[Fuc(a1-6)]GlcNAc
# Summary of the method: as §1
# [29] = target: Fuc(a1-2)Gal(b1-4)GlcNAc(b1-2)[Fuc(a1-2)Gal(b1-4)GlcNAc(b1-4)]Man(a1-3)[Fuc(a1-2)Gal(b1-4)GlcNAc(b1-2)Man(a1-6)]Man(b1-4)GlcNAc(b1-4)GlcNAc
# Summary of the method: as §1
# [30] = target: Fuc(a1-2)Gal(b1-4)GlcNAc(b1-3)Gal(b1-4)GlcNAc
# Summary of the method: as §1
# [31] = target: Fuc(a1-2)Gal(b1-4)GlcNAc(b1-3)Gal(b1-4)GlcNAc(b1-2)Man(a1-3)[Fuc(a1-2)Gal(b1-4)GlcNAc(b1-3)Gal(b1-4)GlcNAc(b1-2)Man(a1-6)]Man(b1-4)GlcNAc(b1-4)GlcNAc
# Summary of the method: as §1
# [32] = target: Fuc(a1-2)Gal(b1-4)GlcNAc(b1-3)Gal(b1-4)GlcNAc(b1-3)Gal(b1-4)GlcNAc
# Summary of the method: as §1
# [33] = target: Fuc(a1-2)Gal(b1-4)GlcNAc(b1-3)GalNAc
# Summary of the method: as §1
# [34] = target: Fuc(a1-2)Gal(b1-4)GlcNAc(b1-3)[Fuc(a1-2)Gal(b1-4)GlcNAc(b1-6)]GalNAc
# Summary of the method: as §1
# [35] = target: Fuc(a1-2)Gal(b1-4)GlcNAc(b1-3)[Fuc(a1-3)[Gal(b1-4)]GlcNAc(b1-6)]Gal(b1-4)Glc
# Summary of the method: as §1
# [36] = target: Fuc(a1-2)Gal(b1-4)GlcNAc(b1-6)GalNAc
# Summary of the method: as §1
# [37] = target: Fuc(a1-2)Gal(b1-4)GlcNAc6S
# Summary of the method: as §1
# [38] = target: Fuc(a1-2)Gal(b1-4)[Fuc(a1-3)]GlcNAc
# Summary of the method: as §1
# [39] = target: Fuc(a1-2)Gal(b1-4)[Fuc(a1-3)]GlcNAc(b1-2)Man(a1-3)[Fuc(a1-2)Gal(b1-4)[Fuc(a1-3)]GlcNAc(b1-2)Man(a1-6)]Man(b1-4)GlcNAc(b1-4)[Fuc(a1-6)]GlcNAc
# Summary of the method: as §1
# [40] = target: Fuc(a1-2)Gal(b1-4)[Fuc(a1-3)]GlcNAc(b1-2)[Fuc(a1-2)Gal(b1-4)[Fuc(a1-3)]GlcNAc(b1-4)]Man(a1-3)[Fuc(a1-2)Gal(b1-4)[Fuc(a1-3)]GlcNAc(b1-2)Man(a1-6)]Man(b1-4)GlcNAc(b1-4)GlcNAc
# Summary of the method: as §1
# [41] = target: Fuc(a1-2)Gal(b1-4)[Fuc(a1-3)]GlcNAc(b1-3)Gal(b1-4)[Fuc(a1-3)]GlcNAc
# Summary of the method: as §1
# [42] = target: Fuc(a1-2)Gal(b1-4)[Fuc(a1-3)]GlcNAc(b1-3)Gal(b1-4)[Fuc(a1-3)]GlcNAc(b1-3)Gal(b1-4)[Fuc(a1-3)]GlcNAc
# Summary of the method: as §1
# [43] = target: Fuc(a1-2)Gal(b1-4)[Fuc(a1-3)]GlcNAc(b1-3)GalNAc
# Summary of the method: as §1
# [44] = target: Fuc(a1-2)Gal(b1-4)[Fuc(a1-3)]GlcNAc(b1-3)[Neu5Ac(a2-6)Gal(b1-4)GlcNAc(b1-6)]Gal(b1-4)Glc
# Summary of the method: as §1
# [45] = target: Fuc(a1-2)Gal3S(b1-4)GlcNAc
# Summary of the method: as §1
binder,measurement,setting,value
"cFel (Cyprinus carpio), P68512 (protein) LDCTVIDGNLKQIDAGSGSVVGVNNLNETFVLIDNVFTKISGSLKHFSVGPAGQLGVNTANNIFKYQSGGFVQLAGLLKQVDAGGDQIIAGVNMYDDIYCLNMDANNKWPSSNTPWVQINGKLKYYSCGPYSCWGVNSNDQIFIMKDVSSNVCSGSGSFINIPGLLSMIEVATDGSVFGVNSQGNLYQRTGVTRSKPDGTDWISMVACPNGHKHVSFDLGVLWLVCVDGSIRKCILTD",glycan array binding signal (z-score),[1],-0.805
same,glycan array binding signal (z-score),[2],-0.471
same,glycan array binding signal (z-score),[3],-1.11
same,glycan array binding signal (z-score),[4],-0.492
same,glycan array binding signal (z-score),[5],-1.02
same,glycan array binding signal (z-score),[6],-0.654
same,glycan array binding signal (z-score),[7],0.211
same,glycan array binding signal (z-score),[8],0.028
same,glycan array binding signal (z-score),[9],1.14
same,glycan array binding signal (z-score),[10],-0.998
same,glycan array binding signal (z-score),[11],0.919
same,glycan array binding signal (z-score),[12],-0.586
same,glycan array binding signal (z-score),[13],-0.457
same,glycan array binding signal (z-score),[14],1.55
same,glycan array binding signal (z-score),[15],-1.02
same,glycan array binding signal (z-score),[16],-1.06
same,glycan array binding signal (z-score),[17],-0.189
same,glycan array binding signal (z-score),[18],1.04
same,glycan array binding signal (z-score),[19],-1.33
same,glycan array binding signal (z-score),[20],-0.327
same,glycan array binding signal (z-score),[21],0.169
same,glycan array binding signal (z-score),[22],-0.395
same,glycan array binding signal (z-score),[23],-0.58
same,glycan array binding signal (z-score),[24],-0.105
same,glycan array binding signal (z-score),[25],0.351
same,glycan array binding signal (z-score),[26],1.19
same,glycan array binding signal (z-score),[27],-0.464
same,glycan array binding signal (z-score),[28],1.24
same,glycan array binding signal (z-score),[29],-0.603
same,glycan array binding signal (z-score),[30],-0.873
same,glycan array binding signal (z-score),[31],0.04
same,glycan array binding signal (z-score),[32],1.05
same,glycan array binding signal (z-score),[33],-0.209
same,glycan array binding signal (z-score),[34],0.1
same,glycan array binding signal (z-score),[35],-0.83
same,glycan array binding signal (z-score),[36],2.42
same,glycan array binding signal (z-score),[37],0.68
same,glycan array binding signal (z-score),[38],0.152
same,glycan array binding signal (z-score),[39],3.47
same,glycan array binding signal (z-score),[40],-0.095
same,glycan array binding signal (z-score),[41],-0.711
same,glycan array binding signal (z-score),[42],-0.042
same,glycan array binding signal (z-score),[43],-1.34
same,glycan array binding signal (z-score),[44],1.24
same,glycan array binding signal (z-score),[45],-0.749

# 2 entries from above in a different format.
binder | measurement | setting | value
cFel (Cyprinus carpio), P68512 (protein) LDCTVIDGNLKQIDAGSGSVVGVNNLNETFVLIDNVFTKISGSLKHFSVGPAGQLGVNTANNIFKYQSGGFVQLAGLLKQVDAGGDQIIAGVNMYDDIYCLNMDANNKWPSSNTPWVQINGKLKYYSCGPYSCWGVNSNDQIFIMKDVSSNVCSGSGSFINIPGLLSMIEVATDGSVFGVNSQGNLYQRTGVTRSKPDGTDWISMVACPNGHKHVSFDLGVLWLVCVDGSIRKCILTD | glycan array binding signal (z-score) | [4] | -0.492
same | glycan array binding signal (z-score) | [33] | -0.209

# — the supplement of paper PMC8728848
